The record followed here is paper PMC7819943, “Rice protein-binding microarrays: a tool to detect cis-acting elements near promoter regions in rice”.

Sequences of proteins named here, by UniProt entry; tags and fusion partners are left off.
UniProt Q0JBA9, entry or part of it: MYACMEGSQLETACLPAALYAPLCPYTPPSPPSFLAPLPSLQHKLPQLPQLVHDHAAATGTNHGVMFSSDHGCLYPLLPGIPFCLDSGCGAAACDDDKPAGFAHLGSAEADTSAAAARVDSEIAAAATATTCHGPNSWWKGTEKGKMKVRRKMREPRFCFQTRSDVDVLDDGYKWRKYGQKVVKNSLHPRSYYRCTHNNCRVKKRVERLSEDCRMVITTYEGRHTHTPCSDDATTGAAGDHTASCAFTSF

The list shows a part of the results.

In the assay the target is OsWRKY34 (Oryza sativa, UniProt Q0JBA9 1-250). Kind of assay: protein-binding microarray (RPBM); PBS, 2% BSA, 51.3 ng/ul salmon testes DNA, 50 uM zinc acetate, 200 nM TF, 25 C, 1 h; high values mean tight binding. The conditions noted are these: protein: recombinant; tags: N-terminal polyhistidine and DsRed monomer fusion (pET32a); label: CyDye5-dUTP incorporated in the synthesized complementary strand; 3' TTTTT single-stranded linker to array surface; dsDNA, one strand shown. In short, it runs like this: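 For the binding signal, per-feature fluorescence intensity was read in arbitrary units on an Axon 4000B scanner. Before scanning, a 2% BSA-blocked custom Agilent array made double-stranded with Cy5-dUTP was washed after 1 h at 25 °C with 200 nM protein and 50 µM zinc acetate. The proteins were Ni–NTA-purified transcription factors with N-terminal polyhistidine and DsRed fusions, expressed in E. coli BL21-CodonPlus.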
Turning to “GGTTTGGATGGCTGATTTGTGTAAAGTTGGGCTAGAGTTGCGGAGTCACCTAGTGCAG”, the binding signal is 9020 fluorescence intensity (a.u.).
Consider “GAGTCACTGGGTTCTACACCACTCAGTCCAATCAAACCAACGGAGTCACCTAGTGCAG”, for which the binding signal was 8830 fluorescence intensity (a.u.).
As for “TTCATTTACGGCTTTACCATTTTCCATTTTTTTTCTTAGACGGAGTCACCTAGTGCAG”, the binding signal is 8130 fluorescence intensity (a.u.).
Next, “ACCTTAACTCTCGTTCAACTAACTTTTGCATCTACTGAATCGGAGTCACCTAGTGCAG”: 8440 fluorescence intensity (a.u.); “GAGGAGACGCTGGGACTGGGTGGGTACCCTCCGCCGCCGGCGGAGTCACCTAGTGCAG”: 10000 fluorescence intensity (a.u.).
In the case of “CCCCTCGCCTACCCACAGCTGTTCACATCACTCCCGCTCCCGGAGTCACCTAGTGCAG”, the binding signal is 8120 fluorescence intensity (a.u.).
Turning to “TCCTTTTGTGCTGAACTTGTTTTGTTGGTACTTGACACAACGGAGTCACCTAGTGCAG”, the binding signal was 10600 fluorescence intensity (a.u.).
“AATTGACAATGTCTCACCATTCGCCTACTCTTAAGCACCACGGAGTCACCTAGTGCAG”: the binding signal is 9440 fluorescence intensity (a.u.).
Next, “CTATTCGTGTTGGAGGAATACTGTTTTACGATCCGGTTTCCGGAGTCACCTAGTGCAG”: 8040 fluorescence intensity (a.u.).
As to “TTTACTAAACTTCAGAAATTTTATGCATTTATCCTTTCATCGGAGTCACCTAGTGCAG”, the binding signal was 8280 fluorescence intensity (a.u.).
Consider “CAGAGGGTTATTTGTGTGCCTTTTGGAAAGTTTAGGGTTTCGGAGTCACCTAGTGCAG”, for which the binding signal is 10200 fluorescence intensity (a.u.).
Take “CTCTCCCTCCGCTCTCTCGCCGCCGTCGCCGCCACGCGCTCGGAGTCACCTAGTGCAG”: the binding signal was 8950 fluorescence intensity (a.u.).
As to “ATTTGTTAGTCTTCAATTTTTCTCTTTTAATTTTTCTTTTCGGAGTCACCTAGTGCAG”, the binding signal is 11200 fluorescence intensity (a.u.).
Next, “GCACACCTTCCCTTGATGTCAGCTTTGATAGTGTTGAGGTCGGAGTCACCTAGTGCAG”: 9680 fluorescence intensity (a.u.); “TAGTATAGCACTCTGCAGTTTTCCCCGATCGACGACGTCGCGGAGTCACCTAGTGCAG”: 8110 fluorescence intensity (a.u.); “GTAGCTCTGTAAACCCCGCGTGTCGGTGTCGGTGGGCGGGCGGAGTCACCTAGTGCAG”: 12900 fluorescence intensity (a.u.).
On to “TAGGGAGGGTTGTGGGGAGGGGAGCTGTGGCCGCAATGTCCGGAGTCACCTAGTGCAG”, for which the binding signal is 19400 fluorescence intensity (a.u.).
Consider “TCAAACCAGGGACTTTGCGTGGAGGAGAGGGGCGGCGGGGCGGAGTCACCTAGTGCAG”, for which the binding signal is 15100 fluorescence intensity (a.u.).
Take “GTTGCAGGCGCCTATGTTTGTACAGTGTTTCAAGAAAAAACGGAGTCACCTAGTGCAG”: the binding signal was 9900 fluorescence intensity (a.u.).
The value for “CGCTCGTCCGCTCCACTCCACCACCAGAAGTACCACCTCCCGGAGTCACCTAGTGCAG” was 9360 fluorescence intensity (a.u.).
Turning to “ATCTTATATTCAGGTACATATTAAAATATTTTCCCATCAGCGGAGTCACCTAGTGCAG”, the binding signal is 8230 fluorescence intensity (a.u.).
As to “CGCCGCCTCCGCCTCCGCTTCCGCTCGCCCGGACCCGCCTCGGAGTCACCTAGTGCAG”, the binding signal was 11100 fluorescence intensity (a.u.).
For the sequence “TTTTTTTTCTTTTTTTTTTGTCGGTGCGGCTTTTTCTTTCCGGAGTCACCTAGTGCAG”, the binding signal was 9000 fluorescence intensity (a.u.).
Regarding “AGAAACAACTAACCGCTTATTCTACTACAGATTATAACAACGGAGTCACCTAGTGCAG”, the binding signal is 8980 fluorescence intensity (a.u.).
The value for “TCATTTGAGTTGTTCTTTCTCACACCCAATTCTTACATTTCGGAGTCACCTAGTGCAG” was 9450 fluorescence intensity (a.u.); that for “AGCAGCACCATTATTCCTGCTGGCTAGTGTGTCCATTTGACGGAGTCACCTAGTGCAG” was 8840 fluorescence intensity (a.u.).
Next, “CCCTGGAGTTTTCTCTCTCCTGCCGGTGCTCCCAACTCTTCGGAGTCACCTAGTGCAG”: 8140 fluorescence intensity (a.u.); “TCGCCGCAAAAACCACGCCGCCATCACAGCATTCGTGCATCGGAGTCACCTAGTGCAG”: 8140 fluorescence intensity (a.u.).
Turning to “GCACACGTCGTTCGGTTCCTCTCCACTCCAACTCCACCGTCGGAGTCACCTAGTGCAG”, the binding signal was 8160 fluorescence intensity (a.u.).
The value for “ATATTTCAAGTTTGTAATCATATGCTAACGGTTCATCTCACGGAGTCACCTAGTGCAG” was 8910 fluorescence intensity (a.u.); that for “CCATGTCCTGCTCTGCCTCTCCATTCACATCTCCAGCACACGGAGTCACCTAGTGCAG” was 9620 fluorescence intensity (a.u.).
The value for “GCACCATCACATAGCAAACCATAATCACCTACATTTTTCACGGAGTCACCTAGTGCAG” was 8550 fluorescence intensity (a.u.); that for “TTCTAACCCCAGTAACCGAACACAGCCTTAGTTTTTATTGCGGAGTCACCTAGTGCAG” was 8350 fluorescence intensity (a.u.); that for “GGTGTGCGGCTTCCAGTATCCTTGAACAATTCAGGTTTTCCGGAGTCACCTAGTGCAG” was 9370 fluorescence intensity (a.u.).
The value for “CTCCACCAGCCGTTATTCTTTTGTTTCGTCCTCACTCATCCGGAGTCACCTAGTGCAG” was 8140 fluorescence intensity (a.u.); that for “AATATGGTGTCGTTCACTTTTTTTACGTATATTTCATCATCGGAGTCACCTAGTGCAG” was 8510 fluorescence intensity (a.u.).
In the case of “TCCCTACCAGAAGACATGTCAGCCTCTACGCAACCATTACCGGAGTCACCTAGTGCAG”, the binding signal was 8190 fluorescence intensity (a.u.).
“TTCATACCACCTTACATTTTACGTTTGAATCACCATTCTACGGAGTCACCTAGTGCAG”: the binding signal is 8740 fluorescence intensity (a.u.).
For “TCTTGCTTATATTCTCTTAAACAGGTATACCCACTGTTTTCGGAGTCACCTAGTGCAG”, the binding signal is 10100 fluorescence intensity (a.u.).
For “TCCTTGTCTTCTCCATCGTTGATCTTCTCGCAGCAGTTTCCGGAGTCACCTAGTGCAG”, the binding signal is 9820 fluorescence intensity (a.u.).
In the case of “TCATGCTCACGTTTGGTGGTGGTTGCTGTTCGATCGTCCACGGAGTCACCTAGTGCAG”, the binding signal is 10200 fluorescence intensity (a.u.).
Next, “GGTTTTGTCCACTACCCCACCTTTCTCTCCGCAAGAATCACGGAGTCACCTAGTGCAG”: 8640 fluorescence intensity (a.u.).
